Reference: patent publication US20040254346A1
Results are given in words; binding and its absence hold for the method and conditions named. For part of these data: Binding seen in cells or lysates may run through a third protein. Some binding calls cover weakened binding; strength is not graded here.

Sequences of proteins named here, by UniProt entry; tags and fusion partners are left off.
UniProt O15392: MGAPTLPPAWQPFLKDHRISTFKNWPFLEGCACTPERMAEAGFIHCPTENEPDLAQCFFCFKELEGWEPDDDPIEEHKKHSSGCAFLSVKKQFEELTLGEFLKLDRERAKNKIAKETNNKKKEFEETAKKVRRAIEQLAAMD

Experiments:
Survivin (human) [1] = target: Survivin (human) (UniProt O15392); experiment: yeast two-hybrid in S. cerevisiae EGY48/pSH18-32 (LexA and Gal4 activation domain fusions); growth without leucine and blue colour on X-Gal
Survivin (human) [2] = target: Survivin (human) (UniProt O15392); experiment: co-immunoprecipitation with V5 antibody, from HeLa cells and of in vitro translated proteins
[3] = target: Gal4 DB domain fused to the full length survivin (human) (UniProt O15392); experiment: yeast two-hybrid screen (Proquest) with pDBLeu-Survivin as bait against HeLa and fetal brain cDNA libraries; 25 mM 3-aminotriazole selection

Measured: binding

B1: Survivin Interacting Protein 1 (protein)
chain: MEASVILPILKKKLAFLSGGKDRRSGLILTIPLCLEQTNMDELSVTLDYLLSIPSEKCKARGFTVIVDGRKSQWNVVKTVVVMLQNVVPAEVSLVCVVKPDEFWDKKVTHFCFWKEKDRLGFEVILVSANKLTRYIEPCQLTEDFGGSLTYDHMDWLNKRLVFEKFTKESTSLLDELALINNGSDKGNQQEKERSVDLNFLPSVDPETVLQTGHELLSELQQRRFNGSDGGVSWSPMDDELLAQPQVMKLLDSLREQYTRYQEVCRQRSKRTQLEEIQQKVMQVVNWLEGPGSEQLRAQWGIGDSIRASQALQQKHEEIESQHSEWFAVYVELNQQIAALLNAGDEEDLVELKSLQQQLSDVCYRQASQLEFRQNLLQAALEFHGVAQDLSQQLDGLLGMLCVDVAPADGASIQQTLKLLEEKLKSVDVGLQGLREKGQGLLDQISNQASWAYGKDVTIENKENVDHIQGVMEDMQLRKQRCEDMVDVRRLKMLQMVQLFKCEEDAAQAVEWLSELLDALLKTHIRLGDDAQETKVLLEKHRKFVDVAQSTYDYGRQLLQATVVLCQSLRCTSRSSGDTLPRLNRVWKQFTIASEERVHRLEMAIAFHSNAEKILQDCPEEPEAINDEEQFDEIEAVGKSLLDRLTVPVVYPDGTEQYFGSPSDMASTAENIRDRMKLVNLKRQQLRHPEMVTTES
binds: all assays above
